The record followed here is PubChem BioAssay AID662 (National Center for Advancing Translational Sciences (NCATS), 2007).

Each structure is given as a SMILES string. Some of the results follow. Shown are side measurements of this screen, not its main read-out; they come without a call. Most of these compounds were active or inconclusive in the main read-out, so they are no random draw. The note in brackets gives the kind of curve behind each potency; many fits are weak.

The assay can be described thus: Cell signaling CRE-BLA (Fsk stim). The conditions noted are these: CHO CRE-bla reporter (cAMP response element driving beta-lactamase), forskolin EC10, beta-lactamase ratio; measured here: 460 nm blue channel. From the text: NIH Molecular Libraries Screening Centers Network [MLSCN]
NIH Chemical Genomics Center [NCGC]
Assay Provider: Marshall W. Nirenberg, U.S. National heart lung & blood institute
Memories persist for different lengths of time, from seconds or minutes to a lifetime. There are two kinds of memory: short-term memory (STM) and long-term memory (LTM). STM lasts for minutes to hours, which maybe mediated by modifications of molecules involved in synaptic functions. LTM lasts for days or longer, and may be due to the formation of new synapses or restructuring of existing synapses. LTM, but not STM, requires gene transcription and synthesis of proteins. CREB (cyclic-AMP Responsive Element Binding Protein) is one of the candidates plays an important role for enhancement of some types of LTM. CREB, a family of transcription factors, regulates the transcription of genes containing cAMP Responsive Elements (CRE). CRE is a nucleotide sequence often found in the promoter regions of genes that are binding sites for CREB.
Using a beta-lactamase reporter-gene under control of cAMP responsive element, a cell-based assay [CellSensor(TM) CRE-bla CHO developed by Invitrogen Corp.] was used to measure forskolin-induced signaling. Library compounds were measured for their ability to modulate positively or negatively the action of EC10 NKH 477, a water soluble forskolin, on reporter gene activity. Compounds were screened in a titration series in 1536-well format. Positive and negative modulators were identified based on the AC50 values derived from the screening data.
NCGC Assay Protocol Summary
2000 cells/5uL in Opti-MEM medium containing 0.5% dialyzed FBS, 0.1 mM NEAA, 1 mM sodium pyruvate and 10 mM HEPES was dispensed into 1536-well plates and cells were cultured at 37 degrees Celsius overnight. […] And then the plates were incubated at 37 degrees Celsius for 3 hours. 1 uL of CCF4-dye mixture was added to each well. After incubated at room temperature for 2 hours the plates were measured on an EnVision plate reader at Excitation 405nm, Emission1=460nm and Emission 2=530nm. The %Activity was determined from the ratio of 460nm/530nm.
Keywords: NIH Roadmap, MLSCN, MLSMR, qHTS, NCGC, CRE, beta-lactamase reporter-gene assay.
On to `Nc1nc(CSc2ccccn2)nc(Nc2ccccc2)n1`, for which the AC50 was 25.1 µM [rising, single point].
The value for `CN(C)C(=O)C(CCN1CCC(O)(c2ccc(Cl)cc2)CC1)(c1ccccc1)c1ccccc1` was 12.6 µM [falling, single point].
Take `COc1ccc(CNc2ncnc3ccc(-c4cccc(C#N)c4)cc23)c(OC)c1`: the AC50 was 10 µM [rising, partial curve].
As for `Cc1cccc(N2CC(C(=O)O)CC2=O)c1` (centres undefined), the AC50 was 15.8 µM [falling, partial curve].
With `OC(COCc1ccco1)CN1CCN(C(c2ccccc2)c2ccccc2)CC1` (centres undefined), the AC50 was 3.16 µM [falling, single point].
The value for `COc1ccc(CNc2ncnc3ccc(-c4c(C)noc4C)cc23)c(OC)c1` was 5.01 µM [rising, partial curve].
The value for `CCOC(=O)Cc1nn(CCc2ccccn2)c(=O)c2ccccc12` was 12.6 µM [rising, partial curve, poor fit].
The value for `COC(=O)c1cc(OC)c(OC)cc1NC(=O)CCC1CCCC1` was 10 µM [rising, partial curve]; that for `c1ccc(-c2noc(CSc3nnc(Cc4cccs4)n3-c3ccccc3)n2)cc1` was 10 µM [rising, partial curve]; that for `CCn1c(CSc2nnc(-c3cccnc3)n2-c2ccccc2C)nc2cc(C(=O)O)ccc21` was 0.00316 µM [falling, full curve, poor fit].
On to `CC(C)=CCC/C(C)=C/CN(CC(C)O)CC(C)O` (centres undefined), for which the AC50 is 0.01 µM [falling, full curve].
The value for `Cc1cc(NC(=O)CCCC(=O)NCc2cccs2)no1` was 25.1 µM [rising, single point]; that for `Cn1nnnc1NCc1c(F)cccc1Cl` was 25.1 µM [rising, single point]; that for `CCOC(=O)C1CCN(C(=O)C2CC(=O)N(c3ccc(C)cc3)C2)CC1` (centres undefined) was 3.98 µM [rising, single point].
The value for `CCOC(=O)CSc1nc2c(sc(=S)n2CCc2ccccc2)c(=O)n1Cc1ccco1` was 5.01 µM [rising, single point]; that for `COc1cc2c3c(c1)C1(C(=O)N3C(C)(C)C=C2C)C(C#N)=C(N)Oc2cc(O)ccc21` (centres undefined) was 10 µM [falling, partial curve, poor fit]; that for `COc1ccc(N2C(=O)CCC(C(C)=O)=C2C)cc1` was 0.00631 µM [falling, full curve].
The value for `C=CCn1c(N2CCCC2)nc2c1c(=O)[nH]c(=O)n2C` was 12.6 µM [rising, partial curve].
On to `COc1cc2c(cc1OC)C(c1cccs1)NCC2` (centres undefined), for which the AC50 was 12.6 µM [rising, partial curve].

What is called AC50 is the concentration giving half of the maximal activity seen.
